# These are yes or no findings as the source states them, for the method shown.
# By UniProt entry, the sequences of proteins in these tests, tags left out. Residues count along the entry.
# UniProt P22736, residues 356-598: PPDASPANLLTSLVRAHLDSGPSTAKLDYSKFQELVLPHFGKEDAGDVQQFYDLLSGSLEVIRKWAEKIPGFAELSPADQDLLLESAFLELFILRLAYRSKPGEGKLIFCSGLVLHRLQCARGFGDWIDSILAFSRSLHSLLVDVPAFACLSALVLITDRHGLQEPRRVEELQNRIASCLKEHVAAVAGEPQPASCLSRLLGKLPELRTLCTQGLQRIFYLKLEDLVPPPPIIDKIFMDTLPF
# Molecular target: Nur77 (NR4A1) ligand-binding domain (LBD) (human) (UniProt P22736)
# Test: SEC-MALS; 100 µL of each protein at 5 mg/mL (180 µM) injected; 40 mM potassium phosphate pH 7.4, 200 mM KCl; 25 °C; both purified
substance,measurement,value
Nur77 (NR4A1) ligand-binding domain (LBD) (from UniProt P22736 356-598) (domain or fragment),binding,no binding (tested: 180 µM)
